The supplement of paper PMC4299490
± gives the standard deviation of the averaged measurements. This is a noisy data set.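 Each ligand was tested at three doses, and effects were judged against wells given only the basal cytokines. TGFB1 at 10 ng/ml served as a negative control and SR1 as a positive control for HSC expansion.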

Columns and labels:
[1] = tested on: human umbilical cord blood Lin-RholowCD34+CD38-CD45RA-CD49f+ HSC-enriched cells; test: number of CD34- mature cells per well on day 7 (from 40 seeded cells); higher = more mature cell output; settings: culture time: 7 days, basal cytokines: 100 ng/ml SCF + 50 ng/ml THPO + 100 ng/ml FLT3LG
Experimental: (§1)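 Forty human umbilical cord blood Lin-RholowCD34+CD38-CD45RA-CD49f+ HSC-enriched cells were cultured per well in serum-free medium with basal cytokines (100 ng/ml SCF, 50 ng/ml THPO, 100 ng/ml FLT3LG) plus one test ligand (recombinant protein or small-molecule inhibitor) at the stated concentration. On day 7, flow cytometry counted CD34+CD133+CD90+ HSC-enriched cells and CD34- mature cells; progenitors (CD34+ cells that are CD133- or CD90-) were calculated as total - HSC-enriched - mature. Values are absolute cell numbers per well, corrected for the 30 µl dead volume and averaged over experiments; they are not normalised to the basal-cytokine control, and they vary strongly between experiments. Concentrations are in ng/ml, except SR1, which is 0.75 µM.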

[2] = tested on: human umbilical cord blood Lin-RholowCD34+CD38-CD45RA-CD49f+ HSC-enriched cells; test: number of CD34+CD133+CD90+ HSC-enriched cells per well on day 7 (from 40 seeded cells); higher = more HSC-enriched cell output; settings: culture time: 7 days, basal cytokines: 100 ng/ml SCF + 50 ng/ml THPO + 100 ng/ml FLT3LG
Experimental: as §1

[3] = ligand concentration (ng/ml; SR1 in µM as written): 10
[4] = ligand concentration (ng/ml; SR1 in µM as written): 1
[5] = ligand concentration (ng/ml; SR1 in µM as written): 25
[6] = ligand concentration (ng/ml; SR1 in µM as written): 100
[7] = ligand concentration (ng/ml; SR1 in µM as written): 50
[8] = ligand concentration (ng/ml; SR1 in µM as written): 200
[9] = ligand concentration (ng/ml; SR1 in µM as written): 1000
[10] = ligand concentration (ng/ml; SR1 in µM as written): 0.1
[11] = ligand concentration (ng/ml; SR1 in µM as written): 150

Question: What does the source list for `NC(=O)c1ccc(-c2nc(-c3ccccn3)c(-c3ccc4c(c3)OCO4)[nH]2)cc1`?
Answer: number [1, 3]: 988 ± 230; number [2, 3]: 47.9 ± 4.4

Question: For BMP6, which number [1, 4] is on record?
Answer: Its number is 328 ± 270.

Question: What about the number [1, 5] of the same compound?
Answer: The number was 444 ± 380.

Question: What about the number [1, 6] of the same compound?
Answer: The number was 389 ± 400.

Question: What about the number [2, 4] of the same compound?
Answer: Its number is 102 ± 65.

Question: What about the number [2, 5] of the same compound?
Answer: The number was 93 ± 71.

Question: What about the number [2, 6] of the same compound?
Answer: The number was 81.3 ± 57.

Question: How did the number [1, 7] turn out when “H-MTLIGAAHNGSAQLLRQLRGQLGPPGSR-NH2 [OrexinB]” was run?
Answer: Its number is 280 ± 130.

Question: What about the number [1, 8] of the same compound?
Answer: The number was 440 ± 290.

Question: And the number [1, 9]?
Answer: Its number is 404 ± 210.

Question: What about the number [2, 7] of the same compound?
Answer: Its number is 189 ± 44.

Question: What about the number [2, 8] of the same compound?
Answer: Its number is 174 ± 43.

Question: What about the number [2, 9] of the same compound?
Answer: The number was 146 ± 60.

Question: What does the source list for “MAARRSQRRRGRRGEPGTALLVPLALGLGLALACLGLLLAVVSLGSRASLSAQEPAQEELVAEEDQDPSELNPQTEESQDPAPFLNRLVRPRRSAPKGRKTRARRAIAAHYEVHPRPGQDGAQAGVDGTVSGWEEARINSSSPLRYNRQIGEFIVTRAGLYYLYCQVHFDEGKAVYLKLDLLVDGVLALRCLEEFSATAASSLGPQLRLCQVSGLLALRPGSSLRIRTLPWAHLKAAPFLTYFGLFQVH”?
Answer: number [1, 4]: 378 ± 270; number [1, 3]: 361 ± 260; number [1, 6]: 294 ± 210; number [2, 4]: 97.6 ± 65; number [2, 3]: 93.7 ± 76; number [2, 6]: 94 ± 73

Question: Which results are given for “MAGPATQSPMKLMALQLLLWHSALWTVQEATPLGPASSLPQSFLLKCLEQVRKIQGDGAALQEKLVSECATYKLCHPEELVLLGHSLGIPWAPLSSCPSQALQLAGCLSQLHSGLFLYQGLLQALEGISPELGPTLDTLQLDVADFATTIWQQMEELGMAPALQPTQGAMPAFASAFQRRAGGVLVASHLQSFLEVSYRVLRHLAQP”?
Answer: number [1, 10]: 620 ± 400; number [1, 3]: 1720 ± 1300; number [1, 6]: 1730 ± 1300; number [2, 10]: 108 ± 40; number [2, 3]: 175 ± 79; number [2, 6]: 205 ± 150

Question: For “MAMMEVQGGPSLGQTCVLIVIFTVLLQSLCVAVTYVYFTNELKQMQDKYSKSGIACFLKEDDSYWDPNDEESMNSPCWQVKWQLRQLVRKMILRTSEETISTVQEKQQNISPLVRERGPQRVAAHITGTRGRSNTLSSPNSKNEKALGRKINSWESSRSGHSFLSNLHLRNGELVIHEKGFYYIYSQTYFRFQEEIKENTKNDKQMVQYIYKYTSYPDPILLMKSARNSCWSKDAEYGLYSIYQGGIFELKENDRIFVSVTNEHLIDMDHEASFFGAFLVG”, which number [1, 4] is on record?
Answer: The number was 434 ± 260.

Question: And the number [1, 3]?
Answer: Its number is 564 ± 390.

Question: And the number [1, 6]?
Answer: Its number is 285 ± 240.

Question: What about the number [2, 4] of the same compound?
Answer: Its number is 168 ± 64.

Question: What about the number [2, 3] of the same compound?
Answer: The number was 227 ± 80.

Question: And the number [2, 6]?
Answer: The number was 101 ± 65.

Question: “MCPARSLLLVATLVLLDHLSLARNLPVATPDPGMFPCLHHSQNLLRAVSNMLQKARQTLEFYPCTSEEIDHEDITKDKTSTVEACLPLELTKNESCLNSRETSFITNGSCLASRKTSFMMALCLSSIYEDLKMYQVEFKTMNAKLLMDPKRQIFLDQNMLAVIDELMQALNFNSETVPQKSSLEEPDFYKTKIKLCILLHAFRIRAVTIDRVMSYLNAS” was tested. Which number [1, 4] did it give?
Answer: The number was 427 ± 280.

Question: What about the number [1, 3] of the same compound?
Answer: Its number is 429 ± 320.

Question: What about the number [1, 11] of the same compound?
Answer: Its number is 365 ± 290.

Question: And the number [2, 4]?
Answer: The number was 112 ± 110.

Question: And the number [2, 3]?
Answer: The number was 116 ± 110.

Question: What about the number [2, 11] of the same compound?
Answer: The number was 120 ± 140.

Question: For “MDRAARCSGASSLPLLLALALGLVILHCVVADGNSTRSPETNGLLCGDPEENCAATTTQSKRKGHFSRCPKQYKHYCIKGRCRFVVAEQTPSCVCDEGYIGARCERVDLFYLRGDRGQILVICLIAVMVVFIILVIGVCTCCHPLRKRRKRKKKEEEMETLGKDITPINEDIEETNIA”, which number [1, 4] is on record?
Answer: Its number is 361 ± 270.

Question: And the number [1, 7]?
Answer: Its number is 334 ± 280.

Question: What about the number [1, 8] of the same compound?
Answer: The number was 327 ± 280.

Question: What about the number [2, 4] of the same compound?
Answer: The number was 84.7 ± 51.

Question: And the number [2, 7]?
Answer: Its number is 69.9 ± 36.

Question: What about the number [2, 8] of the same compound?
Answer: The number was 89.5 ± 59.

Question: How did the number [1, 7] turn out when “MDTRNKAQLLVLLTLLSVLFSQTSAWPLYRAPSALRLGDRIPFEGANEPDQVSLKEDIDMLQNALAENDTPYYDVSRNARHADGVFTSDFSKLLGQLSAKKYLESLMGKRVSSNISEDPVPVKRHSDAVFTDNYTRLRKQMAVKKYLNSILNGKRSSEGESPDFPEELEK” was run?
Answer: Its number is 318 ± 210.

Question: What about the number [1, 8] of the same compound?
Answer: Its number is 335 ± 150.

Question: And the number [1, 9]?
Answer: The number was 480 ± 390.

Question: What about the number [2, 7] of the same compound?
Answer: Its number is 97.4 ± 75.

Question: And the number [2, 8]?
Answer: Its number is 128 ± 62.

Question: What about the number [2, 9] of the same compound?
Answer: The number was 128 ± 74.
